Article PMC6510286
Results are given in words; binding and its absence hold for the method and conditions named. In cells and extracts the contact can be indirect. Some binding calls cover weakened binding; strength is not graded here. One block for each binder: values may come before it.

How the values were obtained:
Settings in all cases: remark: other sources report otherwise
[1] = biological target: EZH2 (human (endogenous in HepG2 and SW480)), Q15910; experiment: co-IP; endogenous proteins from SW480 cells; IgG as negative control; immunoblot
[2] = biological target: EZH2 (human (endogenous in HepG2 and SW480)), Q15910; experiment: co-IP; endogenous proteins from cell lysates (cell line not stated); USP7 antibody or EZH2 antibody; cells without and with shUSP7 or shEZH2 knock-down; IgG as negative control; immunoblot
[3] = biological target: EZH2 (human (endogenous in HepG2 and SW480)), Q15910; experiment: co-IP; endogenous proteins from HepG2 nuclear extracts; antibody against EZH2, LSD1 or HDAC1 on protein G-sepharose, overnight at 4°C, washed in TBST (pH 7.2, 25 mM Tris-HCl, 150 mM NaCl, 0.5% Tween-20); IgG as negative control; immunoblot

binding [1]: binds
binding [2]: binds
binding [3]: binds
B1: SMAD2, Q15796 1-467 (protein)
chain: MSSILPFTPPVVKRLLGWKKSAGGSGGAGGGEQNGQEEKWCEKAVKSLVKKLKKTGRLDELEKAITTQNCNTKCVTIPSTCSEIWGLSTPNTIDQWDTTGLYSFSEQTRSLDGRLQVSHRKGLPHVIYCRLWRWPDLHSHHELKAIENCEYAFNLKKDEVCVNPYHYQRVETPVLPPVLVPRHTEILTELPPLDDYTHSIPENTNFPAGIEPQSNYIPETPPPGYISEDGETSDQQLNQSMDTGSPAELSPTTLSPVNHSLDLQPVTYSEPAFWCSIAYYELNQRVGETFHASQPSLTVDGFTDPSNSERFCLGLLSNVNRNATVEMTRRHIGRGVRLYYIGGEVFAECLSDSAIFVQSPNCNQRYGWHPATVCKIPPGCNLKIFNNQEFAALLAQSVNQGFEAVYQLTRMCTIRMSFVKGWGAEYRRQTVTSTPCWIELHLNGPLQWLDKVLTQMGSPSVRCSSMS

binding [1]: binds
binding [2]: binds
B2: SMAD4, Q13485 1-552 (protein)
chain: MDNMSITNTPTSNDACLSIVHSLMCHRQGGESETFAKRAIESLVKKLKEKKDELDSLITAITTNGAHPSKCVTIQRTLDGRLQVAGRKGFPHVIYARLWRWPDLHKNELKHVKYCQYAFDLKCDSVCVNPYHYERVVSPGIDLSGLTLQSNAPSSMMVKDEYVHDFEGQPSLSTEGHSIQTIQHPPSNRASTETYSTPALLAPSESNATSTANFPNIPVASTSQPASILGGSHSEGLLQIASGPQPGQQQNGFTGQPATYHHNSTTTWTGSRTAPYTPNLPHHQNGHLQHHPPMPPHPGHYWPVHNELAFQPPISNHPAPEYWCSIAYFEMDVQVGETFKVPSSCPIVTVDGYVDPSGGDRFCLGQLSNVHRTEAIERARLHIGKGVQLECKGEGDVWVRCLSDHAVFVQSYYLDREAGRAPGDAVHKIYPSAYIKVFDLRQCHRQMQQQAATAQAAAAAQAAAVAGNIPGPGSVGGIAPAISLSAAAGIGVDDLRRLCILRMSFVKGWGPDYPRQSIKETPCWIEIHLHRALQLLDEVLHTMPIADPQPLD
